For this series, the target named is alpha-synuclein oligomer (UniProt P37840). Kind of series: binding assay. The note with it: alpha-synuclein oligomers; 10 mM Tris-HCl pH 7.4, 150 mM NaCl, 5 mM KCl, 37 C with agitation (aggregation); AUC at 20 C, 55,000 rpm; recombinant protein; residues 1-140; single-stranded DNA.

Experimental findings from publication PMC9454088 are described below.

For at least one entry, the source does not settle the construct or the ends of the probe.

Broadly, the Kd is the free concentration of one partner at which half of the binding sites on the other are occupied at equilibrium, for simple one-to-one binding. As for “GCCTGTGGTGTTGGGGCGGGTGCG [T-SO508 aptamer]”, the Kd amounted to 68 nM.
